Data as given in article PMC7838873, “Purification and Characterization of Recombinant Expressed Apple Allergen Mal d 1” (Methods and Protocols, 2020).
Results are given in words; binding and its absence hold for the method and conditions named. Sequences can lack the tags named with a protein.

Molecular target: recombinant apple allergen Mal d 1 without polyhistidine-tag (apple (Malus domestica)) (UniProt Q9SYW3)
Assay: SDS-PAGE after reduction with DTT; 10 mM dithiothreitol added to the stored sample 10 min before denaturation; both purified

- binding: no binding (condition: with 10 mM DTT)
B1: recombinant apple allergen Mal d 1 without polyhistidine-tag (natural protein, apple (Malus domestica), UniProt Q9SYW3 1-159, looked up)
chain: MGVYTFENEFTSEIPPSRLFKAFVLDADNLIPKIAPQAIKQAEILEGNGGPGTIKKITFGEGSQYGYVKHRIDSIDEASYSYSYTLIEGDALTDTIEKISYETKLVACGSGSTIKSISHYHTKGNIEIKEEHVKAGKEKAHGLFKLIESYLKDHPDAYN
notes: n = 159 residues used for the CD calculation; pET-28b(+) vector, NcoI/XhoI, insert 485 bp; also called r-Mal d 1; source: E. coli BL21 star (DE3)pLysS, purified (anion-exchange chromatography, TOYOPEARL SuperQ-650S or GigaCap Q-650M)
